Assays:
[1] = general procedure: Fmoc solid-phase peptide synthesis; Tentagel S RAM; HATU, HOAt, DIPEA; settings: whole synthesis, based on resin loading, acetate
[2] = general procedure: Fmoc solid-phase peptide synthesis; Tentagel S RAM (Knorr linker); HATU, HOAt, DIPEA; settings: whole synthesis, UPLC-MS, acetate

Substance: azemiopsin
- isolated yield [1]: about 20%
- final LC-MS purity [2]: greater than 97%
- final purity (method not given) [2]: about 90%

From PMC5793121 (Toxins, 2018)
